Test results taken from the supplement of paper PMC6078165.

Test system: Hs578T
Test: relative JC-1 red fluorescence (viability) vs pre-drug, coculture with fibroblast (fraction); higher = more viable cancer cells
Method: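 JC-1 labelled TNBC cells cocultured 1:1 (1,500 cells each) with CellTrace Violet stained primary or stromal fibroblasts in 384-well plates in FluoroBrite medium, treated with one of 42 anticancer drugs at 0.1, 1, 10 or 100 uM. JC-1 red fluorescence (mitochondrial integrity in cancer cells only) was read by plate reader every 8 h for 72 h. Values are normalised to each well's pre-drug value. The stock of one drug was tenfold lower, so its dose labels may be too high.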

C#Cc1cccc(Nc2ncnc3cc(OCCOC)c(OCCOC)cc23)c1 [Erlotinib]
relative JC-1 red fluorescence
Settings	8 h	16 h	24 h	32 h	40 h	48 h	56 h	64 h	72 h
10 µM	0.959	0.897	0.866	0.836	0.787	0.755	0.734	0.691	0.685
100 µM	0.909	0.854	0.8406	0.816	0.773	0.75	0.75496	0.7218	0.718

relative JC-1 red fluorescence
Settings	8 h	16 h	24 h	32 h	40 h	48 h	56 h	64 h	72 h
10 µM, coculture fibroblast: C12385	0.845	0.7844	0.785	0.74804	0.72	0.704	0.688	0.68	0.675
10 µM, coculture fibroblast: H6013	0.907	0.889	0.872	0.881	0.856	0.85	0.835	0.831	0.809
10 µM, coculture fibroblast: H6019	0.828	0.787	0.775	0.721	0.706	0.692	0.6756	0.652	0.642
10 µM, coculture fibroblast: H6076	0.953	0.918	0.896	0.875	0.857	0.856	0.835	0.826	0.812
10 µM, coculture fibroblast: H6231	0.907	0.86	0.823	0.7833	0.7496	0.733	0.69	0.669	0.648
10 µM, coculture fibroblast: HADF	0.932	0.94	0.929	0.934	0.921	0.907	0.896	0.896	0.858
10 µM, coculture fibroblast: HCFa	0.885	0.882	0.848	0.844	0.793	0.781	0.762	0.753	0.726
10 µM, coculture fibroblast: HCPF	0.9237	0.8853	0.8591	0.8438	0.804	0.796	0.78	0.743	0.723
10 µM, coculture fibroblast: HHSteC	0.906	0.8607	0.8316	0.835	0.801	0.791	0.781	0.773	0.745
10 µM, coculture fibroblast: HMF	0.917	0.882	0.855	0.8363	0.8034	0.80013	0.7811	0.75967	0.7511
10 µM, coculture fibroblast: HPFa	0.9857	0.97	0.965	0.95	0.943	0.939	0.911	0.903	0.873
10 µM, coculture fibroblast: HUF	0.8898	0.828	0.8446	0.773	0.7419	0.7204	0.7037	0.701	0.691
10 µM, coculture fibroblast: Hs27A	0.95	0.891	0.855	0.932	0.957	0.949	0.94	0.939	0.889
10 µM, coculture fibroblast: Hs343T	0.9515	0.904	0.894	0.891	0.845	0.834	0.814	0.784	0.772
10 µM, coculture fibroblast: WS1	0.8343	0.806	0.765	0.719	0.706	0.729	0.736	0.743	0.737
100 µM, coculture fibroblast: C12385	0.8624	0.8358	0.796	0.756	0.718	0.702	0.696	0.687	0.676
100 µM, coculture fibroblast: H6013	0.91	0.939	0.885	0.86	0.769	0.8238	0.86	0.869	0.834
100 µM, coculture fibroblast: H6019	0.79909	0.7621	0.775	0.721	0.715	0.719	0.721	0.72	0.709
100 µM, coculture fibroblast: H6076	0.9391	0.926	0.924	0.918	0.887	0.8896	0.886	0.892	0.898
100 µM, coculture fibroblast: H6231	0.93	0.902	0.889	0.8599	0.8183	0.809	0.782	0.761	0.751
100 µM, coculture fibroblast: HADF	0.729	0.811	0.8257	0.823	0.82	0.828	0.777	0.859	0.91
100 µM, coculture fibroblast: HCFa	0.945	0.964	0.9407	0.9164	0.8687	0.87	0.838	0.834	0.803
100 µM, coculture fibroblast: HCPF	0.979	0.942	0.932	0.922	0.895	0.889	0.89	0.847	0.843
100 µM, coculture fibroblast: HHSteC	0.828	0.875	0.959	0.956	0.929	0.917	0.898	0.879	0.853
100 µM, coculture fibroblast: HMF	0.865	0.858	0.946	0.924	0.883	0.871	0.862	0.84498	0.825
100 µM, coculture fibroblast: HPFa	0.969	0.939	0.84	0.852	0.966	0.941	0.902	0.887	0.853
100 µM, coculture fibroblast: HUF	0.8941	0.839	0.839	0.761	0.723	0.696	0.673	0.669	0.666
100 µM, coculture fibroblast: Hs27A	0.88	0.8341	0.772	0.867	0.793	0.798	0.754	0.8923	0.853
100 µM, coculture fibroblast: Hs343T	0.9409	0.89452	0.899	0.888	0.837	0.826	0.812	0.791	0.778
100 µM, coculture fibroblast: WS1	0.813	0.784	0.78	0.736	0.69	0.683	0.67	0.674	0.673

The reference is the same well before dosing, and untreated signal decays as well.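 Labels refer to human fibroblasts, largely primary: uterine (C12385, HUF), lung (H6013), bone (Hs27A), adrenal (HADF), skin (WS1), plus mammary HMF and breast cancer-associated Hs343T. Cancer lines are basal-like or mesenchymal-like triple-negative breast cancer. The paper counts as hits responses shifting over 3x the replicate standard deviation. The tissue of the other fibroblasts is not given here.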
